{"source": "patent US12466819B2", "about": "“Tricyclic compounds with OMA1/OPA1 modulatory properties” (712 North Inc., priority 2019, dated 2025)", "molecular_target": "T1, OMA1 protease (OPA1 cleavage) (Homo sapiens, UniProt Q96E52)", "T1 construct": "endogenous in cells; host or cells: 293T cells", "T1 sequence (Q96E52 144-524)": "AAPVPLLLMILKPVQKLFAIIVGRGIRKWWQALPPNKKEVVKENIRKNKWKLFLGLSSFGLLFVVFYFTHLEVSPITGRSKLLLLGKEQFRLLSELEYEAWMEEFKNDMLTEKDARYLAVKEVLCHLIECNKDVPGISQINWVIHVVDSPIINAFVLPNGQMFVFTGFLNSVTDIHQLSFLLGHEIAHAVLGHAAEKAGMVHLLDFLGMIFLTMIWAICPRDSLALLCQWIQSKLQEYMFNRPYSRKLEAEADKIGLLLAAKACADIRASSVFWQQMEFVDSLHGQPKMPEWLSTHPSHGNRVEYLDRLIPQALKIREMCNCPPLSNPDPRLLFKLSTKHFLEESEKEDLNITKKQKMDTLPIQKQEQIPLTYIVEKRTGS", "experiment": "OPA1 cleavage / OMA1 activation in 293T cells by OPA1 Western blotting", "format": "cell-based", "settings": "60 minutes compound (30 μM MMP2/9 inhibitor IV, 300 μM temozolomide, 100 μM amoxapine), then 1 μM CCCP for 30 minutes", "procedure": "FIG. 6. A: 293T cells were treated with 0 μM, 1 μM, 2 μM, 3 μM, 4 μM, or 5 μM CCCP for 30 minutes after which OPA1 was analyzed by Western blotting. […] E: OPA1 cleavage in Neuro2A cells treated with 30 μM of the indicated agents for 90 minutes (60 min preincubation plus 30 min of CCCP).\nFIG. 7. Compounds of present invention can lower CCCP-levels for OMA1 activation gauged by OPA1 cleavage in Western blots. A-C: 293T cells were treated with the denoted concentrations of compound VII, IV and V for 60 minutes before CCCP was added for an additional 30 minutes. D-E: 293T cells were treated with the denoted concentrations of compound VII, IV and V for 6 hours before CCCP was added for an additional 30 minutes.\nFIG. 11. […] B: 293T cells were treated with the denoted concentrations of compound for 90 minutes before cells were harvested and analyzed by OPA1 Western blotting. C: 293T cells were treated with the denoted concentrations of compound VI for 60 minutes and another 30 minutes with 1 μM CCCP before cells were harvested and analyzed by OPA1 Western blotting. […]\nA nonlimiting example illustrates specific features of certain compounds disclosed herein and teaches how potency of such compounds can be further improved. To this end, compound were analyzed for their potential to lower threshold-levels for OPA1 cleavage and/or OMA1 activation using the methods described in Example 3. […]", "note": "At least one structure is not confirmed: it was looked up by name or label, or the drawing left a doubt.", "data": [{"smiles": "Cn1nnc2c(C(N)=O)ncn2c1=O", "note": "[temozolomide]", "values": [{"measurement": "OPA1 cleavage with compound plus 1 μM CCCP", "value": "no impact on OPA1 cleavage"}]}]}
